# Results are given in words; binding and its absence hold for the method and conditions named. In cells and extracts the contact can be indirect. Here binding means that the protein was enriched with, or labelled near, the bait; the list need not be complete. For part of these data: No binding means not detected with the bait. For part of these data: Sequences can lack the tags named with a protein.
# T1: TSSC4^V3-Flag, C-terminally 3xFlag-HBH-tagged, stable cell line (human) (UniProt Q9Y5U2)
# T1 sequence: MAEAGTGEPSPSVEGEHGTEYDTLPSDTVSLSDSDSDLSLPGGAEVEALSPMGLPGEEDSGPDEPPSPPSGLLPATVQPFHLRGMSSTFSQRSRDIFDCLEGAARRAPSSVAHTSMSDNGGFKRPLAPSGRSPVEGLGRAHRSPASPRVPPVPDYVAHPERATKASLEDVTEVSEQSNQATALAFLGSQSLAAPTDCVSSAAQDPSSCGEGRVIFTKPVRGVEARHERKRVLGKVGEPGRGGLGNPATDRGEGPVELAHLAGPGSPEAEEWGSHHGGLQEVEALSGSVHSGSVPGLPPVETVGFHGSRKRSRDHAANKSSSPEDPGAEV
# B1: DDX35 (protein, UniProt Q9H5Z1 1-703)
# chain: MAAPVGPVKFWRPGTEGPGVSISEERQSLAENSGTTVVYNPYAALSIEQQRQKLPVFKLRNHILYLIENYQTVVIVGETGCGKSTQIPQYLAEAGWTAEGRVVGVTQPRRVAAVTVAGRVAEERGAVLGHEVGYCIRFDDCTDQLATRIKFLTDGMLVREMMVDPLLTKYSVIMLDEAHERTLYTDIAIGLLKKIQKKRGDLRLIVASATLDADKFRDFFNQNETSDPARDTCVILTVEGRTFPVDIFYLQSPVPDYIKSTVETVVKIHQTEGDGDVLAFLTGQEEVETVVSMLIEQARALARTGMKRHLRVLPMYAGLPSFEQMKVFERVSRSVRKVIVATNVAETSITISGIVYVIDCGFVKLRAYNPRTAIECLVVVPVSQASANQRAGRGGRSRSGKCYRLYTEEAFDKLPQSTVPEMQRSNLAPVILQLKALGIDNVLRFHFMSPPPAQSMVQALELLYALGGLDKDCRLTEPLGMRIAEFPLNPMFAKMLLESGNFGCSQEILSIAAMMQIQNIFVVPPNQKSHAIRVHRKFAVEEGDHLTMLNIYEAFIKHNKDSKWCQEHFLNYKGLVRAATVREQLKKLLVKFQVPRKSSEGDPDLVLRCIVSGFFANAARFHSTGAYRTIRDDHELHIHPASVLYAEKPPRWVIYNEVIQTSKYYMRDVTAIESAWLLELAPHFYQQGTHLSLKAKRAKVQDP
# B2: PPIL2 (protein, UniProt Q13356 1-520)
# chain: MGKRQHQKDKMYITCAEYTHFYGGKKPDLPQTNFRRLPFDHCSLSLQPFVYPVCTPDGIVFDLLNIVPWLKKYGTNPSNGEKLDGRSLIKLNFSKNSEGKYHCPVLFTVFTNNTHIVAVRTTGNVYAYEAVEQLNIKAKNFRDLLTDEPFSRQDIITLQDPTNLDKFNVSNFYHVKNNMKIIDPDEEKAKQDPSYYLKNTNAETRETLQELYKEFKGDEILAATMKAPEKKKVDKLNAAHYSTGKVSASFTSTAMVPETTHEAAAIDEDVLRYQFVKKKGYVRLHTNKGDLNLELHCDLTPKTCENFIRLCKKHYYDGTIFHRSIRNFVIQGGDPTGTGTGGESYWGKPFKDEFRPNLSHTGRGILSMANSGPNSNRSQFFITFRSCAYLDKKHTIFGRVVGGFDVLTAMENVESDPKTDRPKEEIRIDATTVFVDPYEEADAQIAQERKTQLKVAPETKVKSSQPQAGSQGPQTFRQGVGKYINPAATKRAAEEEPSTSATVPMSKKKPSRGFGDFSSW
# B3: NHP2L1/SNU13 (protein, UniProt P55769 1-128)
# chain: MTEADVNPKAYPLADAHLTKKLLDLVQQSCNYKQLRKGANEATKTLNRGISEFIVMAADAEPLEIILHLPLLCEDKNVPYVFVRSKQALGRACGVSRPVIACSVTIKEGSQLKQQIQSIQQSIERLLV
# B4: CD2BP2 (protein, UniProt O95400 1-341)
# chain: MPKRKVTFQGVGDEEDEDEIIVPKKKLVDPVAGSGGPGSRFKGKHSLDSDEEEDDDDGGSSKYDILASEDVEGQEAATLPSEGGVRITPFNLQEEMEEGHFDADGNYFLNRDAQIRDSWLDNIDWVKIRERPPGQRQASDSEEEDSLGQTSMSAQALLEGLLELLLPRETVAGALRRLGARGGGKGRKGPGQPSSPQRLDRLSGLADQMVARGNLGVYQETRERLAMRLKGLGCQTLGPHNPTPPPSLDMFAEELAEEELETPTPTQRGEAESRGDGLVDVMWEYKWENTGDAELYGPFTSAQMQTWVSEGYFPDGVYCRKLDPPGGQFYNSKRIDFDLYT
# B5: BUD31 (protein, UniProt P41223 1-144)
# chain: MPKVKRSRKAPPDGWELIEPTLDELDQKMREAETEPHEGKRKVESLWPIFRIHHQKTRYIFDLFYKRKAISRELYEYCIKEGYADKNLIAKWKKQGYENLCCLRCIQTRDTNFGTNCICRVPKSKLEVGRIIECTHCGCRGCSG
# B6: PRPF28/DDX23, Q9BUQ8 1-820 (enzyme)
# chain: MAGELADKKDRDASPSKEERKRSRTPDRERDRDRDRKSSPSKDRKRHRSRDRRRGGSRSRSRSRSKSAERERRHKERERDKERDRNKKDRDRDKDGHRRDKDRKRSSLSPGRGKDFKSRKDRDSKKDEEDEHGDKKPKAQPLSLEELLAKKKAEEEAEAKPKFLSKAEREAEALKRRQQEVEERQRMLEEERKKRKQFQDLGRKMLEDPQERERRERRERMERETNGNEDEEGRQKIREEKDKSKELHAIKERYLGGIKKRRRTRHLNDRKFVFEWDASEDTSIDYNPLYKERHQVQLLGRGFIAGIDLKQQKREQSRFYGDLMEKRRTLEEKEQEEARLRKLRKKEAKQRWDDRHWSQKKLDEMTDRDWRIFREDYSITTKGGKIPNPIRSWKDSSLPPHILEVIDKCGYKEPTPIQRQAIPIGLQNRDIIGVAETGSGKTAAFLIPLLVWITTLPKIDRIEESDQGPYAIILAPTRELAQQIEEETIKFGKPLGIRTVAVIGGISREDQGFRLRMGCEIVIATPGRLIDVLENRYLVLSRCTYVVLDEADRMIDMGFEPDVQKILEHMPVSNQKPDTDEAEDPEKMLANFESGKHKYRQTVMFTATMPPAVERLARSYLRRPAVVYIGSAGKPHERVEQKVFLMSESEKRKKLLAILEQGFDPPIIIFVNQKKGCDVLAKSLEKMGYNACTLHGGKGQEQREFALSNLKAGAKDILVATDVAGRGIDIQDVSMVVNYDMAKNIEDYIHRIGRTGRAGKSGVAITFLTKEDSAVFYELKQAILESPVSSCPPELANHPDAQHKPGTILTKKRREETIFA
# Biological target: TSSC4^wt-Flag, C-terminally 3xFlag-HBH-tagged, stable cell line (human) (UniProt Q9Y5U2)
# Test: affinity purification with mass spectrometry; Flag-IP (Flag M2 affinity gel) from 500 μg nuclear extract of Flp-In T-REx 293 cells stably expressing 3xFlag-HBH-tagged TSSC4^wt or TSSC4^V3; 10 mM HEPES-NaOH pH 7.3, 150 mM NaCl, 10 mM MgCl2, 10 mM KCl, 0.5 mM EGTA, benzonase; 3xFlag peptide elution; label-free LC-MS against unmodified cells
# Settings: not given
row,binding,Binder
1,binds,B1
2,binds,B2
3,no binding,B3
4,binds,B4
5,binds,B5

# Biological target: T1, TSSC4^V3-Flag, C-terminally 3xFlag-HBH-tagged, stable cell line (human)
# Test: as above
# Settings: not given
row,binding,Binder
1,binds,B3
2,binds,B4
3,binds,B5

# Biological target: TSSC4^wt-Flag, C-terminally 3xFlag-HBH-tagged, stable cell line (human), Q9Y5U2
# Test: as above
# Settings: remark: other sources report otherwise
row,binding,Binder
1,no binding,B6

# Reference: publication PMC8934646
